Protein sequences, listed by entry. Tags and fused reporters are not part of them. Lines headed by an entry give the natural chain unless they say otherwise; changes in a name come on top.
UniProt Q15172: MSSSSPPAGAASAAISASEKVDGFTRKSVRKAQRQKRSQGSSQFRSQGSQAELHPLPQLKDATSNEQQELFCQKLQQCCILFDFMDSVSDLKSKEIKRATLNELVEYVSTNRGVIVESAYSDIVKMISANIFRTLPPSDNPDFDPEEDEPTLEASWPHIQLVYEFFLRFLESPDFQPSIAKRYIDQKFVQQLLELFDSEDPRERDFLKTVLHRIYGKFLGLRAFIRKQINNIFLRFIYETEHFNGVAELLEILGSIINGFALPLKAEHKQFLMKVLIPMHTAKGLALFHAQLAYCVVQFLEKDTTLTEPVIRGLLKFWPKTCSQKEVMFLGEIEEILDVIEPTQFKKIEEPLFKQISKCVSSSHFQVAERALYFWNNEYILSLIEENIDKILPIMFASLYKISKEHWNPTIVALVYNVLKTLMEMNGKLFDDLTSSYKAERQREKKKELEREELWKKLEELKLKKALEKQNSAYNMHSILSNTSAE
UniProt P67775: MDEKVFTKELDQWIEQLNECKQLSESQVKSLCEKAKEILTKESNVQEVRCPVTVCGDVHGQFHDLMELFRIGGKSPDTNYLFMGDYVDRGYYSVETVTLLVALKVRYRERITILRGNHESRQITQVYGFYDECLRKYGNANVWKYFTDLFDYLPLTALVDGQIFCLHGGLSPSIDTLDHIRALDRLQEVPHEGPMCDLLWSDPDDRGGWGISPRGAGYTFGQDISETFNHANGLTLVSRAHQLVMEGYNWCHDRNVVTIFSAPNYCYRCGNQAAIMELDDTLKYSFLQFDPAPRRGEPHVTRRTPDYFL

In publication PMC9289710:

Target: Strep-B56α (UniProt Q15172)
Experiment: pull-down; Strep-B56α, His-PP2ACA and MBP-PPP2R1A co-expressed in HEK293; complex purified by a Strep-tag affinity column, peak fractions run on a GF200 10/30 column; 100 mM Tris pH 8.0, 150 mM NaCl, 10% glycerol, 0.5 mM TCEP

**Q.** How did the binding turn out when “His-PP2ACA (from UniProt P67775) (enzyme)” was run?
**A.** binds

Results are given in words; binding and its absence hold for the method and conditions named. Binding seen in cells or lysates may run through a third protein. A result given as binding can be weak or reduced; the word gives no strength.
